Some of the results follow. Measured potencies and affinities stand elsewhere. The source made no clear call on entries shown without one.

Consider nine compounds from PubChem BioAssay AID434945 (Broad Institute, 2010).

The nature of the test: Calcineurin inhibition, yeast CDRE-lacZ reporter, luminescent dose-response secondary (AID 434945). The note with it: S. cerevisiae CDRE-lacZ reporter, CaCl2, luminescence; at 28.5 µM (top of the series).
In the case of `O=C(Nc1nnc(CCc2ccccc2)s1)c1ccco1`, the activity change, negative = inhibition is 52.2%.

For the compound `CCOC(=O)c1c(-c2ccccc2Cl)cn2ccccc12`, the activity change, negative = inhibition was found to be 42.3%. In the case of `COc1cc2c(cc1NC(=O)c1ccco1)CCCC2`, the activity change, negative = inhibition amounted to 35.6%. Take `O=C(Nc1nnc(-c2ccco2)o1)c1ccc(Cl)cc1`: the activity change, negative = inhibition stood at 79.4%. The figure for `Cc1ccc(C(=O)Nc2cccc(-c3cn4ccccc4n3)c2)cc1` is 62.3%; for `CC(C)N1CCc2c(sc(NC(=O)c3nc4ccccc4s3)c2C(N)=O)C1` it is 43.2%; for `c1ccc2c(c1)OCC(CNc1ncnc3sccc13)O2` (centres undefined) it is 29.5%. The figure for `CCCC(=O)NC(c1ccccc1)c1ccc2cccnc2c1O` (centres undefined) is 119%. For `Clc1ccc2c(c1)C(c1cccs1)=NNC(c1cccnc1)=N2` the value was 45.8%.
